Nine molecules from PMC2763855 can be followed below.

By UniProt entry, the sequences of proteins in these tests, tags left out.
UniProt Q9Y5X1: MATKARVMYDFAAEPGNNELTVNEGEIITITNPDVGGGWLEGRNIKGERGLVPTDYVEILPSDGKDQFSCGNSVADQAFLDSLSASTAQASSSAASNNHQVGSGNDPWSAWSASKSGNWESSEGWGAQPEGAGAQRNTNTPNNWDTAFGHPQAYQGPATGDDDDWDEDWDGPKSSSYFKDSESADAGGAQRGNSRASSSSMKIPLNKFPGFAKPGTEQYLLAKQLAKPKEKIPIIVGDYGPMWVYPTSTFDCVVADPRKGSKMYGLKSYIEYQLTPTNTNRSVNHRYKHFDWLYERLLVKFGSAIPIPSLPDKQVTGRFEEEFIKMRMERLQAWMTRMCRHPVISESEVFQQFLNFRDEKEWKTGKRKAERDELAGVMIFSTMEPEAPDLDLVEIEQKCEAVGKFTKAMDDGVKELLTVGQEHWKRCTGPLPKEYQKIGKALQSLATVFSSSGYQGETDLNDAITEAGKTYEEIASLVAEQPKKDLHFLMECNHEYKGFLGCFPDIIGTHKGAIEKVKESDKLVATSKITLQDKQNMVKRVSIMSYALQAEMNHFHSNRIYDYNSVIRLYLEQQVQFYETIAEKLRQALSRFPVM

The target of experiment [1] is T1, GST-hFasL(1-80) fusion protein (human) (UniProt P48023).
T1 sequence: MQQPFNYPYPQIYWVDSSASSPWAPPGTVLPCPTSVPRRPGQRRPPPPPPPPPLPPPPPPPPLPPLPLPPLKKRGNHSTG
The experiment in a line: pull-down; GST-hFasL(1-80) or GST with glutathione sepharose beads, overnight; NP-40 lysates of HEK 293 T cells transfected with HA-tagged sorting nexins; four washes with NP-40 lysis buffer; Western blot with anti-HA mAb 3F10; only the target purified.

For experiment [2], the target named is T2, GST-Itk SH3 domain fusion protein (UniProt Q08881).
T2 sequence: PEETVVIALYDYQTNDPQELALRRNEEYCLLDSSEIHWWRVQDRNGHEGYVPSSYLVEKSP
Kind of experiment: pull-down; recombinant GST-Itk SH3 domain fusion protein; whole cell lysates of stably FasL transfected KFL9 and JFL39.1 cells; Western blot for FasL with mAb G247-4; only the target purified.

The target in experiment [3] is T1, GST-hFasL(1-80) fusion protein (human). The experiment in a line: phage display library panning; GST-hFasL(1-80) covalently bound to epoxy magnetic beads (Dynabeads M-270); library of 288 human SH3 domains as pVIII fusions on phage, 6 x 10^9 PFU, 1.5 h at room temperature; washes with 0.15% or 0.5% Tween-20; bound clones sequenced; domains also found in the GST panning excluded; only the target purified.

Results are given in words; binding and its absence hold for the method and conditions named. For part of these data: Binding seen in cells or lysates may run through a third protein. Some entries that bind do so weakly or less than the wild type. Tags and fused reporters may be left off the sequences shown.

For “HA-tagged full length SNX9 (from UniProt Q9Y5X1 1-595)”, the binding result in experiment [1] is recorded as “binds”. “FasL stably expressed in JFL39.1 cells (from UniProt P48023 1-281)”: the binding entry in experiment [2] is on record as “binds”. Consider “FasL stably expressed in KFL9 cells (from UniProt P48023 1-281)”, for which, in experiment [2], the binding result was “binds”.

B1: fourth SH3 domain of SH3 and PX domain containing protein 2B, displayed on phage (domain or fragment, UniProt A1X283 850-911)
chain: LKDSLYVAVADFEGDKDTSSFQEGTVFEVREKNSSGWWFCQVLSGAPSWEGWIPSNYLRKKP
For the molecule B1, the binding result in experiment [3] is recorded as “binds”.

B2: third SH3 domain of putative E3 ubiquitin protein ligase SH3RF2, displayed on phage (domain or fragment, UniProt Q8TEC5 380-441)
chain: LSANMFVALHSYSAHGPDELDLQKGEGVRVLGKCQDGWLRGVSLVTGRVGIFPNNYVIPIFR
Turning to B2, the binding result in experiment [3] is listed as “binds”.

B3: fifth SH3 domain of SH3 and PX domain containing protein 2A, displayed on phage (domain or fragment, UniProt Q5TCZ1 1072-1133)
chain: NLKDVYVSIADYEGDEETAGFQEGVSMEVLERNPNGWWYCQILDGVKPFKGWVPSNYLEKKN
For B3, the binding entry in experiment [3] is “binds”.

B4: HA-tagged full length SNX33 (protein, UniProt Q8WV41 1-574)
chain: MALKGRALYDFHSENKEEISIQQDEDLVIFSETSLDGWLQGQNSRGETGLFPASYVEIVRSGISTNHADYSSSPAGSPGAQVSLYNSPSVASPARSGGGSGFLSNQGSFEEDDDDDWDDWDDGCTVVEEPRAGGLGTNGHPPLNLSYPGAYPSQHMAFRPKPPLERQDSLASAKRGSVVGRNLNRFSCFVRSGVEAFILGDVPMMAKIAETYSIEMGPRGPQWKANPHPFACSVEDPTKQTKFKGIKSYISYKLTPTHAASPVYRRYKHFDWLYNRLLHKFTVISVPHLPEKQATGRFEEDFIEKRKRRLILWMDHMTSHPVLSQYEGFQHFLSCLDDKQWKMGKRRAEKDEMVGASFLLTFQIPTEHQDLQDVEDRVDTFKAFSKKMDDSVLQLSTVASELVRKHVGGFRKEFQKLGSAFQAISHSFQMDPPFCSEALNSAISHTGRTYEAIGEMFAEQPKNDLFQMLDTLSLYQGLLSNFPDIIHLQKGAFAKVKESQRMSDEGRMVQDEADGIRRRCRVVGFALQAEMNHFHQRRELDFKHMMQNYLRQQILFYQRVGQQLEKTLRMYDNL
As for B4, in experiment [1], the binding entry was “binds”.

B5: SH3 domain 2/2 of vinexin, displayed on phage (domain or fragment, UniProt O60504 454-515)
chain: LEYGEAVAQYTFKGDLEVELSFRKGEHICLIRKVNENWYEGRITGTGRQGIFPASYVQVSRE
Turning to B5, the binding entry in experiment [3] is “binds”.

B6: HA-tagged full length SNX18 (protein, UniProt Q96RF0 1-628)
chain: MALRARALYDFRSENPGEISLREHEVLSLCSEQDIEGWLEGVNSRGDRGLFPASYVQVIRAPEPGPAGDGGPGAPARYANVPPGGFEPLPVAPPASFKPPPDAFQALLQPQQAPPPSTFQPPGAGFPYGGGALQPSPQQLYGGYQASQGSDDDWDDEWDDSSTVADEPGALGSGAYPDLDGSSSAGVGAAGRYRLSTRSDLSLGSRGGSVPPQHHPSGPKSSATVSRNLNRFSTFVKSGGEAFVLGEASGFVKDGDKLCVVLGPYGPEWQENPYPFQCTIDDPTKQTKFKGMKSYISYKLVPTHTQVPVHRRYKHFDWLYARLAEKFPVISVPHLPEKQATGRFEEDFISKRRKGLIWWMNHMASHPVLAQCDVFQHFLTCPSSTDEKAWKQGKRKAEKDEMVGANFFLTLSTPPAAALDLQEVESKIDGFKCFTKKMDDSALQLNHTANEFARKQVTGFKKEYQKVGQSFRGLSQAFELDQQAFSVGLNQAIAFTGDAYDAIGELFAEQPRQDLDPVMDLLALYQGHLANFPDIIHVQKGKAWPLEQVIWSVLCRLKGATLTAVPLWVSESYSTGEEASRDVDAWVFSLECKLDCSTGSFLLEYLALGNEYSFSKVQRVPLMTVLSF
In the case of B6, the binding result in experiment [1] is “binds”.
